Reference: patent US8937065B2, “Compositions and methods for modulating a kinase” (Clevexel Pharma, priority 2011, dated 2015)
At least one read-out could not be matched to a standard name with certainty.

Test system: JAK3 pathway
Assay: Cell based JAK3 pathway inhibition (STAT6-bla RA1 cells, IL-4 activated)
Settings: maximal inhibition
Method: 32 μL of the cell suspension (25,000 cells) was added to each well of a 384-well TC-Treated assay plate. Cells in Assay Media were incubated for 16-24 hours in the plate at 37° C./5% CO2 in a humidified incubator. 4 μL of a 10× serial dilution of a compound of the invention was added to appropriate wells of the plate and pre-incubated at 37° C./5% CO2 in a humidified incubator with cells for 30 minutes. 4 μL of 10× control activator IL-4 at the predetermined EC80 concentration was added to wells containing the compound of the invention. The plate was incubated for 5 hours at 37° C./5% CO2 in a humidified incubator. 8 μL of 1 μM Substrate Loading Solution was added to each well and the plate was incubated for 2 hours at room temperature. The plate was read on a fluorescence plate reader.

Compound | Max % Inh [%]
COc1ccc(-c2nc(-c3c[nH]c(C(=O)N4CCCC4)c3)cs2)cc1NC(=O)CN1CCOCC1 [32A] | 63
COc1ccc(-c2nc(-c3c[nH]c(C(=O)N4CCCC4)c3)cs2)cc1NC(=O)CN1CCCCC1 [33A] | 59.2
